Among the data in article PMC10350922, “Allosteric Inhibitors of Macrophage Migration Inhibitory Factor (MIF) Interfere with Apoptosis-Inducing Factor (AIF) Co-Localization to Prevent Parthanatos” (Journal of Medicinal Chemistry, 2023) are binding values, retold here.

Sequences of proteins named here, by UniProt entry; tags and fusion partners are left off. Residues count along the entry.
UniProt O95831, residues 121-613: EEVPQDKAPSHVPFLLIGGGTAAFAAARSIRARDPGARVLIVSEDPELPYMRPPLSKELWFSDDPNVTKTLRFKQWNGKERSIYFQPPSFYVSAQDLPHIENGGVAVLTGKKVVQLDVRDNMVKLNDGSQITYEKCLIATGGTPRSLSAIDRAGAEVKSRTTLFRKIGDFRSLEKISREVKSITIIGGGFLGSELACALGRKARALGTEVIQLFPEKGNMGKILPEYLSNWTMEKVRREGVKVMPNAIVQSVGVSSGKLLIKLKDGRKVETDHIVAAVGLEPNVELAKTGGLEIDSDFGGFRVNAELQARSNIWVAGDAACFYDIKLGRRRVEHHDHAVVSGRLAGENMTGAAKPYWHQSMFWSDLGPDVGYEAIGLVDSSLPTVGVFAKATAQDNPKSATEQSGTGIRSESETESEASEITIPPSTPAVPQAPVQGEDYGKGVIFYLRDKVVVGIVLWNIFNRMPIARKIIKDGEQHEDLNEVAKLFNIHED

This assay deals with T1, Human recombinant untagged macrophage migration inhibitory factor (MIF) (human) (UniProt P14174).
T1 sequence: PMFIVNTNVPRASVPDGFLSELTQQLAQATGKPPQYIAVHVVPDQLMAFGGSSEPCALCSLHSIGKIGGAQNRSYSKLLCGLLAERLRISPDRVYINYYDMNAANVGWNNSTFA
Description: ELISA; untagged MIF (250 nM) coated on a high-binding 96-well plate overnight at 4 °C in binding buffer (Tris-HCl 100 mM, 5 mM MgCl2, 150 mM NaCl, pH 8.5); blocked with 2% BSA; pre-incubated with a concentration series of compound 6y for 30 min at rt; His-tagged AIF added at 4 μM for 2 h; detected with anti-poly-Histidine-peroxidase antibody; both purified. In general terms: An ELISA detects its analyte on a solid surface through an enzyme-linked reagent.

These are yes or no findings as the source states them, for the method shown. Some entries that bind do so weakly or less than the wild type. Tags and fused reporters may be left off the sequences shown.

For the substance “his-tagged recombinant apoptosis-inducing factor (AIF) (from UniProt O95831 121-613)”, the binding result is listed as “binds”.
